For at least one compound, name, drawing or mass did not settle the structure.
Assays:
Assay type in all cases: cell-based
[1] = test system: collagen induced platelet aggregation; assay: Collagen induced platelet aggregation (Chronolog aggregometer); details: 100 μM, 10 μg/ml collagen
phosphotyrosine = assay: Western blot of overall tyrosine phosphorylation in thrombin-stimulated platelets; details: 0.1 U/ml thrombin
STAT-3β = assay: Western blot of thrombin induced STAT-3β tyrosine phosphorylation in platelets; details: 0.1 U/ml thrombin

`COc1cc2ncnc(Nc3ccc(O)cc3)c2cc1OC` [WHI-P131, 4-(4′-Hydroxyphenyl)-amino-6,7-dimethoxyquinazoline] was tested, and the “effect on collagen induced platelet aggregation” value [1] was “but not collagen-induced”, the overall tyrosine phosphorylation (phosphotyrosine) was “inhibited” and the “thrombin induced STAT-3β tyrosine phosphorylation” value (STAT-3β) was “inhibited”.
